# The list shows a part of the results. The main result of the screen is listed elsewhere. These columns were measured beside it and carry no call. Compounds called inactive in the main read-out are mostly missing here. Words in brackets tell the shape of the fitted curve; partial curves, single points and poor fits give uncertain potencies.
# Experiment: qHTS Assay to Find Inhibitors of Chronic Active B-Cell Receptor Signaling
# Details: ABC-DLBCL IkBa-CBG/CBR reporter, luminescence ratio (green luciferase fused to IkBa over red control in TMD8 lymphoma cells), 4 h
# How it was run: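 TMD8 ABC-DLBCL cells carrying doxycycline-inducible green luciferase fused to IkappaBalpha plus unfused red luciferase were exposed to compounds (up to 46 uM) for 4 hrs at 37C. Activity came from the overlap-corrected green/red luminescence ratio.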
# [1] = measured here: CBR red luminescence, cell number
# [2] = measured here: IkBa-CBG green luminescence
SMILES,AC50 [1],AC50 [2]
CC1CC(C)CN(C(=O)c2ccncc2)C1 (stereo not given),"6.51 µM [rising, single point]",
CCOC(=O)c1cn2nc(N3CCCCC3)ccc2n1,"10 µM [falling, partial curve, poor fit]",
O=C(C#Cc1cccc([N+](=O)[O-])c1)c1ccccc1,"4.11 µM [falling, partial curve, poor fit]",
O=c1[nH]c2cc3c(cc2cc1CN(Cc1nnnn1CC1CCCO1)C1CCCCC1)OCO3 (stereo not given),"20.6 µM [rising, single point]",
COc1ccc(C(=O)NCc2n[nH]c(=S)n2-c2ccccc2)cc1OC,"18.4 µM [rising, single point]",
Cc1cccc(CC(=O)Nc2cc(C)c3c(=O)oc4ccccc4c3n2)c1,"0.92 µM [falling, full curve, poor fit]",
CCN1CCC(NC(=O)Nc2ccc(F)cc2)CC1,"5.62 µM [rising, single point]",
COc1ccc(C2CCCN2C(=S)Nc2ccc(C)cc2Cl)cc1OC (stereo not given),"35.5 µM [rising, partial curve, poor fit]",
CN(C)c1ccc(/C=C/C(=O)c2ccc(C(C)(C)C)cc2)cc1[N+](=O)[O-],,"18.4 µM [falling, partial curve, poor fit]"
C=CCn1c(SCC(=O)Nc2ccc3c(c2)CCC3)nc2ccccc2c1=O,"2.59 µM [falling, partial curve, poor fit]",
Cc1ccc(CN2CC(C(=O)OCc3ccccc3Cl)CC2=O)cc1 (stereo not given),"32.6 µM [rising, partial curve, poor fit]",
CCn1c(C(=O)O)c(CC(=O)Nc2ccc(Br)cc2C)c2ccccc21,"0.398 µM [rising, full curve, poor fit]",
Cc1ccc(NC(=O)c2cccs2)cc1NC(=O)c1cccnc1,"7.08 µM [falling, partial curve, poor fit]",
Cc1nn(-c2ccccc2)c2sc(C(=O)N3CCc4ccccc4C3)cc12,"2.24 µM [falling, partial curve, poor fit]",
C/C(CC(=O)Nc1ccc2c(c1)OCCO2)=N\NC(=O)c1ccccn1,"8.91 µM [falling, partial curve]",
O=C(Nc1cccc2c1[nH]c1ccccc12)C(F)(F)F,"32.6 µM [rising, partial curve, poor fit]",
CCOC(=O)c1ccc2[nH]c3c(c2c1)CCCC3,"0.562 µM [rising, full curve, poor fit]",
C=CCNC(=S)N1CCN(c2ccccc2Cl)CC1,"0.1 µM [rising, full curve, poor fit]",
O=C(N/N=C/c1ccsc1)c1ccc2ccccc2n1,"14.1 µM [falling, single point]",
COc1ccc(C(=O)Nc2cc(OC)cc3cccnc23)cc1,"5.62 µM [rising, partial curve, poor fit]",
Cc1ccc(CSc2nc3c(c(SCC(=O)O)n2)CCCC3)cc1,"12.6 µM [falling, partial curve]",
COc1ccc(-n2c(Cc3cccn3C)nnc2SCC(=O)Nc2ccccc2)cc1,"6.51 µM [falling, single point]",

SMILES,AC50 [1],AC50 [2]
COc1cc(O)oc1C=Nc1ccc(C(=O)O)cc1,"12.6 µM [falling, partial curve, poor fit]",
CCOC(=O)C1CCCN(Cc2nc(N)nc(Nc3ccc(C)cc3)n2)C1 (stereo not given),"13 µM [falling, single point]",
COc1ccccc1N1CCN(CCN2C(=O)C3CCCCN3C2=O)CC1 (stereo not given),"14.1 µM [rising, single point]",
CCn1c(SCC(=O)Nc2nnc(C)s2)nnc1C(C)NC(=O)c1ccccc1 (stereo not given),"4.47 µM [rising, single point]",
CCN(CC)CCSc1nnc2c3ccccc3n(Cc3ccccc3)c2n1,"7.94 µM [falling, partial curve, poor fit]",
N/C(=N\OC(=O)Cc1ccc([N+](=O)[O-])cc1)c1ccccn1,"7.94 µM [falling, partial curve]",
CC(Sc1nc2ccccc2o1)C(=O)O (stereo not given),"5.62 µM [falling, full curve]",
COc1ccccc1N1CCN(C(=O)c2ccc(-c3ccc(Cl)cc3)o2)CC1,"18.4 µM [rising, single point]","18.4 µM [falling, single point]"
COc1ccc(O)c(/C=N/Nc2nc(Nc3ccccc3)nc(-n3nc(C)cc3C)n2)c1,"1.78 µM [falling, partial curve]",
NC(=O)c1cc2cc(Br)ccc2oc1=NCc1ccccc1,"0.517 µM [falling, full curve, poor fit]",
CC1CCc2cc(F)ccc2N1C(=O)CCl (stereo not given),"1 µM [falling, single point]",
Cn1cc(/C=C2\SC(=S)N(NC(=O)c3ccccc3)C2=O)c2ccccc21,"8.2 µM [falling, partial curve]",
Cc1ccc(NC(=O)C2CCC(CNC(=O)[C@@H]3Cc4ccccc4CN3)CC2)cc1 (stereo not given in full),"4.47 µM [falling, partial curve]",
COc1ccc(C2C(C(=O)c3cccs3)=C(O)C(=O)N2c2cccc(C)n2)cc1 (stereo not given),"35.5 µM [falling, single point]",
CCCCCN1CN(S(=O)(=O)c2cccs2)c2nc3ccccc3nc21,"12.6 µM [falling, partial curve, poor fit]",
O=C(NC(NC(=S)Nc1ccc(Cl)cc1)C(Cl)(Cl)Cl)c1ccco1 (stereo not given),"29.1 µM [falling, single point]",
O=C(NCc1cccc(Cl)c1)c1cccc(OC2CCN(C(=O)C3CC3)CC2)c1,"8.91 µM [falling, partial curve]",
Cc1nc2c(-c3ccc(F)cc3)c(C)nn2c(C)c1CCC(=O)N1CCN(c2ccc(F)cc2)CC1,"32.6 µM [rising, single point]",
COC(=O)c1cc(=O)n(Cc2ccc(F)cc2)c(=Nc2ccccc2)s1,"2 µM [falling, partial curve, poor fit]",
C=CCc1ccc(OCCCCOc2ccc(C(=O)O)cc2)c(OC)c1,"0.316 µM [falling, full curve]",
CC(=O)c1cc(-c2ccccc2)n(CCC(=O)NCCc2ccccc2)c1C,"14.1 µM [rising, partial curve, poor fit]",
CCOc1ccccc1Nc1nnc(SCC(=O)NC(=O)c2cccn2C)s1,"16.4 µM [falling, partial curve]",

# Record cards, from the list above:
# Cc1cccc(CC(=O)Nc2cc(C)c3c(=O)oc4ccccc4c3n2)c1 in the list: AC50 [1]: 0.92 µM [falling, full curve, poor fit]
# COc1ccc(C(=O)NCc2n[nH]c(=S)n2-c2ccccc2)cc1OC in the list: AC50 [1]: 18.4 µM [rising, single point]
# O=C(N/N=C/c1ccsc1)c1ccc2ccccc2n1 in the list: AC50 [1]: 14.1 µM [falling, single point]
# COc1ccc(C2CCCN2C(=S)Nc2ccc(C)cc2Cl)cc1OC (stereo not given) in the list: AC50 [1]: 35.5 µM [rising, partial curve, poor fit]

# More structures follow:

SMILES,AC50 [1],AC50 [2]
NC1=NC[C@H](CC2CCCCC2)N1CCc1cc(C(F)(F)F)cc(C(F)(F)F)c1,"25.1 µM [falling, single point]",
C/C(=N\NC(=O)c1ccccn1)C12CC3CC(CC(C3)C1)C2,"35.5 µM [falling, single point]",
C=CCn1c(SCC(=O)Nc2cccc3ccccc23)nc(O)c(CC)c1=O,"8.2 µM [falling, partial curve, poor fit]",
CC(=O)Nc1ccc(C(=O)c2ccccc2)cc1,"14.1 µM [falling, single point]",
CCOC(=O)c1cc(-c2ccccc2)n(CCCC(=O)Nc2ccc(C)cc2Cl)c1C,"25.1 µM [rising, partial curve]",
COc1ccc2cc1Oc1ccc(cc1)C[C@H]1c3c(cc(OC)c4c3Oc3c(ccc5c3[C@H](C2)N(C)CC5)O4)CCN1C,"6.51 µM [falling, single point]",
COc1cccc(/C=C2/SC(=S)N(CC(=O)NC3C=CS(=O)(=O)C3)C2=O)c1 (stereo not given),"15.8 µM [falling, single point]",
C[C@H](NC(=O)c1nc[nH]c1C(=O)NCC(=O)OCc1ccccc1)c1ccccc1,"1.12 µM [rising, full curve, poor fit]",
CCSc1oc(-c2ccco2)nc1S(=O)(=O)c1ccc(F)cc1,"8.2 µM [falling, partial curve, poor fit]",
COc1ccc(N2CCN(C(=O)C3Cc4ccccc4CN3C(=O)c3ccco3)CC2)cc1 (stereo not given),"6.51 µM [rising, single point]",
Cc1ccc(CNc2ncnc3c2cnn3-c2ccc(C)cc2C)cc1,"7.08 µM [falling, partial curve]",
CN(Cc1ccccc1)C(=O)CC(c1ccccc1)c1cc(Cl)ccc1O (stereo not given),"17.8 µM [falling, single point]",
Cc1ccc(NC(=S)N(C)C(c2ccccc2)c2ccccc2)cc1C,"10 µM [falling, partial curve, poor fit]",
Brc1ccccc1-n1nnc(-c2cccnc2)n1,"35.5 µM [rising, partial curve, poor fit]",
CN(C(=O)c1ccc(COc2ccccc2Br)o1)c1ccccc1,"35.5 µM [falling, single point]",
Cc1ccc(C2CC(=O)NC(SCc3ccccc3)=C2C#N)o1 (stereo not given),"17.8 µM [falling, single point]",
COC(=O)c1ccc(C)c(NC(=O)C2COc3ccccc3O2)c1 (stereo not given),"0.00461 µM [rising, full curve, poor fit]",
COc1ccc(CC(=O)Nc2ccc(C(=O)Nc3nccs3)cc2)cc1OC,"22.4 µM [falling, partial curve, poor fit]",
COc1ccccc1-c1sc2cc3c(cc2c1-c1ccc2c(c1)OCO2)OCO3,"0.58 µM [rising, full curve, poor fit]",
COC(=O)CC(NS(=O)(=O)c1cccs1)c1cccc2ccccc12 (stereo not given),"6.51 µM [rising, partial curve, poor fit]",

# — PubChem BioAssay AID493014 (National Center for Advancing Translational Sciences (NCATS), 2011)
